Assay [1] deals with somatostatin receptor subtype 2 (human (endogenous in MCF-7, MDA-MB231 and T47D)) (UniProt P30874). Kind of assay: co-IP; MCF-7 cells, control or treated 15 min at 37°C with L-779,976 (10 nM), DAMGO, Deltorphin-II or U50488HCl (1 μM) alone or in combination; 200 μg membrane protein in RIPA buffer, pH 8.0; anti-SSTR2 immunoprecipitate on protein A/G-agarose, 4°C, blotted for ORs.

Chains of the proteins cited; added tags and fusions are not shown. Lines headed by an entry give the natural chain unless they say otherwise; changes in a name come on top.
UniProt P30874: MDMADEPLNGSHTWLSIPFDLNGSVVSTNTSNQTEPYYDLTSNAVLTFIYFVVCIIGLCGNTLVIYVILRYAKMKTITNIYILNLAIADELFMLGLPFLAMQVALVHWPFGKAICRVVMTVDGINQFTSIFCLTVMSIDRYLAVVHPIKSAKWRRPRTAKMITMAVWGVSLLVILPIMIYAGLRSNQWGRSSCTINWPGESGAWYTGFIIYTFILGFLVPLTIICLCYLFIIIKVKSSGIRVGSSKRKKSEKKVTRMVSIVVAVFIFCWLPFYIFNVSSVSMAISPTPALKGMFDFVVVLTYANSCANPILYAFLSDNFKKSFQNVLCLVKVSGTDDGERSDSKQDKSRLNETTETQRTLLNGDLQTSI
UniProt P35372: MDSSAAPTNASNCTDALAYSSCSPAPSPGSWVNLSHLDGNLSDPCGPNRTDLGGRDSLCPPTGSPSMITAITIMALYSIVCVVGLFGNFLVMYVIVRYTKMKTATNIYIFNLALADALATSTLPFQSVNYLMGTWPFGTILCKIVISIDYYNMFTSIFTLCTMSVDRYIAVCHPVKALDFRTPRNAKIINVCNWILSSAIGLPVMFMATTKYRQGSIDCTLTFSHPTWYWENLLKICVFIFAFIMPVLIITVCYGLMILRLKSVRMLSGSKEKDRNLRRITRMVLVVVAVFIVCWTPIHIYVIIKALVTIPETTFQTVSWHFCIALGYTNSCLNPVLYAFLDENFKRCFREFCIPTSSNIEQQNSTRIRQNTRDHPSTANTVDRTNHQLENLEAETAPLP
UniProt P41145: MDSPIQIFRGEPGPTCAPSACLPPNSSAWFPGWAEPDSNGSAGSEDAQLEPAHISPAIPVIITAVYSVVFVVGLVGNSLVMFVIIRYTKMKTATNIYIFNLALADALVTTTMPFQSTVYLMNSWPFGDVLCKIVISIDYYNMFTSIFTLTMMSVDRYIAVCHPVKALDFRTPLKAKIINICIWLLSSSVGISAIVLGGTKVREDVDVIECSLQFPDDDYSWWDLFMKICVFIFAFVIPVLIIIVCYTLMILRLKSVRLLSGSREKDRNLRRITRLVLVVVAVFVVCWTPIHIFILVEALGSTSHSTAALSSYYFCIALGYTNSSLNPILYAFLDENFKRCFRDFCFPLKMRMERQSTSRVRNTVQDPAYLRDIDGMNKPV

For assay [2] the target is unchanged. Nature of the assay: co-IP; T47D cells, untreated control; membrane protein in RIPA buffer; anti-SSTR2 immunoprecipitate blotted for μOR.
The target is the same in assay [3]. Kind of assay: co-IP; MDA-MB231 cells, control or treated 15 min at 37°C with L-779,976 (10 nM), DAMGO, Deltorphin-II or U50488HCl (1 μM) alone or in combination; 200 μg membrane protein in RIPA buffer, pH 8.0; anti-SSTR2 immunoprecipitate on protein A/G-agarose, 4°C, blotted for ORs.
For assay [4] the target is unchanged. Nature of the assay: condition: only MDA-MB231 cells treated with DAMGO alone or in combination with L-779,976; co-IP; MDA-MB231 cells treated with DAMGO (1 μM) alone or in combination with L-779,976 (10 nM), 15 min at 37°C; membrane protein in RIPA buffer; anti-SSTR2 immunoprecipitate blotted for μOR.
Assay [5] has the same target. Kind of assay: co-IP; T47D cells, control or treated 15 min at 37°C with L-779,976 (10 nM), DAMGO, Deltorphin-II or U50488HCl (1 μM) alone or in combination; 200 μg membrane protein in RIPA buffer, pH 8.0; anti-SSTR2 immunoprecipitate on protein A/G-agarose, 4°C, blotted for ORs.
For assay [6] the target is unchanged. Nature of the assay: condition: only MDA-MB231 cells treated with agonists; co-IP; MDA-MB231 cells treated with agonists (L-779,976 10 nM, Deltorphin-II 1 μM), 15 min at 37°C; membrane protein in RIPA buffer; anti-SSTR2 immunoprecipitate blotted for δOR.
Assay [7] shares this target. Kind of assay: condition: only T47D cells in basal state or treated with L-779,976 alone; co-IP; T47D cells, basal or treated with L-779,976 (10 nM) alone, 15 min at 37°C; membrane protein in RIPA buffer; anti-SSTR2 immunoprecipitate blotted for δOR.
Assay [8] has the same target. Nature of the assay: condition: only MCF-7 cells untreated or treated with U50488HCl alone; co-IP; MCF-7 cells, untreated control or treated with U50488HCl (1 μM) alone, 15 min at 37°C; membrane protein in RIPA buffer; anti-SSTR2 immunoprecipitate blotted for κOR.

Results are given in words; binding and its absence hold for the method and conditions named. In cells and extracts the contact can be indirect. Some binding calls cover weakened binding; strength is not graded here.

For the substance “μ opioid receptor (from UniProt P35372 1-400)”, the binding entry in assay [1] is recorded as “binds”; in assay [2] it was “no binding (condition: untreated control T47D cells)”; in assay [3], “binds weakly”; in assay [4] it was “no binding”; in assay [5], “binds”.

“δ opioid receptor (from UniProt P41143 1-372)”: the binding result in assay [6] is “no binding”; in assay [7] it was “no binding”; in assay [1], “binds”; in assay [3] it was “binds”; in assay [5], “binds”.

Take “κ opioid receptor (from UniProt P41145 1-380)”: the binding result is given as “binds” in assay [1], “binds” in assay [3], “binds” in assay [5] and “no binding” in assay [8].

(Values after publication PMC3852783.)
